Test results from patent publication US20120141451A1.

The chains behind the UniProt entries cited, without tags or fusion partners. Where a name states a change or a piece, a line headed by the entry shows the natural chain unless it says otherwise.
UniProt P13596: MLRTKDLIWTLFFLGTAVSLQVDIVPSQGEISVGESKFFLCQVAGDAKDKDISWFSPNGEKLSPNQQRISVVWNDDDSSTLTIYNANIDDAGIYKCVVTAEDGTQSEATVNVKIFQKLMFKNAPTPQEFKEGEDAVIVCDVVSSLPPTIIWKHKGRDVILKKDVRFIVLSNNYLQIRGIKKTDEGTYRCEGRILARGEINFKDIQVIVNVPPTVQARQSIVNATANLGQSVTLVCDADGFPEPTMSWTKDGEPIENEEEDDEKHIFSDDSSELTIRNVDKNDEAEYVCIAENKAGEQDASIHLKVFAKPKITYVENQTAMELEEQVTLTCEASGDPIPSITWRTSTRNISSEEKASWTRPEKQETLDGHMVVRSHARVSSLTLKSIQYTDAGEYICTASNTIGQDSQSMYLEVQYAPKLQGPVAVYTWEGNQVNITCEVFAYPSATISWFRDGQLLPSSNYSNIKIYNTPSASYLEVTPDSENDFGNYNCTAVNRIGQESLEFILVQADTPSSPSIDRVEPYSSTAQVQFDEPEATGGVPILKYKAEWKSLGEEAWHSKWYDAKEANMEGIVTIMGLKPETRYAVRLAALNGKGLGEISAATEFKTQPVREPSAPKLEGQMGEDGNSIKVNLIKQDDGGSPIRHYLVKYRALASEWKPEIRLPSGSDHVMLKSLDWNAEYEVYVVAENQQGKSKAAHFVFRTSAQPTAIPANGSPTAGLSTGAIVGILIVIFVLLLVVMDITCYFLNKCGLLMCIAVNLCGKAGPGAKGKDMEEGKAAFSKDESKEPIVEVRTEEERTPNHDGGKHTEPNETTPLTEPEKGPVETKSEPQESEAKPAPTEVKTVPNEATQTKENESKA

Key:
[1] = target: rat NCAM F3 modules 1-2 (rat) (UniProt P13596); test: sensorgram (Response diff., RU against time), soluble peptide AKTVKFK at 2-500 µg/ml on immobilized NCAM F3(1-2)
[2] = target: rat NCAM F3 modules 1-2 (rat) (UniProt P13596); test: sensorgram (Response diff., RU against time), soluble peptide … at 2-500 µg/ml on immobilized NCAM F3(1-2)

| Binder | binding [1] | binding [2] |
| --- | --- | --- |
| AKTVKFK [FGFR1-Ig2 derived peptide AKTVKFK (amino acids 171-177)] | binds | – |
| RWLKNGKEFK [FGFR1-Ig2 derived peptide … (amino acids 189-198)] | – | binds |

Results are given in words; binding and its absence hold for the method and conditions named. Binding can be weak; no strength is given.
